Assay [1] has as its target CDK4(细胞周期蛋白依赖性激酶4) in结肠癌组织 (human) (UniProt P11802). In words: IHC on colon cancer sections, antibody at 0.08 μg/mL.
The target is the same in assay [2]. The assay can be described thus: IHC on colon cancer sections.

Chains of the proteins cited; added tags and fusions are not shown. Residues count along the entry.
UniProt P11802, residues 2-303: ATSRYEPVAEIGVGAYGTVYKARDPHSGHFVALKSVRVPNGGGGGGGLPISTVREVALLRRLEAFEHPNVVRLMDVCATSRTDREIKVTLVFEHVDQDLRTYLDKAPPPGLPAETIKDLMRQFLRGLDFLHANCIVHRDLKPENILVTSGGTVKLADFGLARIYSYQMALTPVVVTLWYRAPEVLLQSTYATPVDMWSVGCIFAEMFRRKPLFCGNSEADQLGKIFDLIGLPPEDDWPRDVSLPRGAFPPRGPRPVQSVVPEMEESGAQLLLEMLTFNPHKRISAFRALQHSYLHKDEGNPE

Results are given in words; binding and its absence hold for the method and conditions named. Some binding calls cover weakened binding; strength is not graded here.

Experimental findings from patent publication CN115724981A are described below.

B1: CDK4重组抗体 (antibody, mouse IgG1, kappa, V domains shown)
VH: QVQLKQSGPGLVQPSQSLSITCTVSDFSLTRYAIHWVRQSPGKGLEWLGVIWRGGNTDYNAVFMSRLSITKDTSKSQVFFKMNSLQADDTAIYYCAKDGYGTMDYWGQGTSVTVSS
VL: QIVLTQSPAIMSASPGEKVTITCSASSSVSYMHWFQQKPGTSPKLWIYSTSNLASGVPARFSGSGSGTSYSLTISRMEAEDAATYYCQQRSSYPPTFGGGTKLEIKR
B1: the binding entry in assay [1] and in assay [2] was “binds” each time.
